Results published in the supplement of paper PMC4962491.
± gives the standard deviation of the averaged measurements. This is a selection; strong and weak results do not stand in their true shares. Most values lie within the scatter of the assay; repeated measurements hardly agree. Square brackets hold non-standard residues; d marks the D form. Peptide text beside a SMILES is read from it. pGlu = O=C1CC[C@@H](C(=O)O)N1; Thz = O=C(O)[C@@H]1CSCN1

Tested on: FaDu
Test: mitochondrial oxygen consumption rate normalised to cell number, Z score over the library; higher = higher oxygen consumption (negative = OCR reduction)
Conditions: treatment time 24 h, assay medium: 5 mM galactose, 5 mM pyruvate, 4 mM glutamine
Procedure: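 Primary screen: FaDu cells were incubated 24 h with Pharmakon 1600 / TDI oncology set compounds at 2 or 10 uM. Mitochondrial-specific OCR (basal minus 2 uM antimycin A) was measured on a Seahorse XF96 in assay medium with 5 mM galactose, 5 mM pyruvate and 4 mM glutamine, then corrected for Hoechst cell number and expressed as a Z score […]. Compounds that cut cell number by >66% were excluded. Two repeats.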

| SMILES | mitochondrial oxygen consumption rate normalised (2 µM) | mitochondrial oxygen consumption rate normalised (10 µM) |
| --- | --- | --- |
| NCC(=O)CCC(=O)O | -0.86 ± 0.68 |  |
| NCC(=O)CCC(=O)O [Aminolevulinic Acid] | 0.319 ± 0.59 |  |
| NC(=O)c1ccc[n+]([C@@H]2O[C@H](COP(=O)([O-])OP(=O)(O)OC[C@H]3O[C@@H](n4cnc5c(N)ncnc54)[C@H](O)[C@@H]3O)[C@@H](O)[C@H]2O)c1 | 0.349 ± 2.2 |  |
| O=C(CCCN1CCC(O)(c2ccc(Cl)cc2)CC1)c1ccc(F)cc1 | -0.832 ± 0.17 |  |
| Cc1ccc(C)c(OCCCC(C)(C)C(=O)O)c1 | -0.608 ± 0.59 |  |
| O=C(O)C[C@H](O)C[C@H](O)/C=C/c1c(C2CC2)nc2ccccc2c1-c1ccc(F)cc1 | -0.571 ± 0.42 |  |
| COc1ccc([C@@H]2Sc3ccccc3N(CCN(C)C)C(=O)[C@@H]2OC(C)=O)cc1 | 0.462 ± 0.022 |  |
| Cc1cn([C@H]2C[C@H](N=[N+]=[N-])[C@@H](CO)O2)c(=O)[nH]c1=O | 0.297 ± 0.19 |  |
| CN(C)CCN(Cc1ccc(Cl)cc1)c1ccccn1 | -0.0491 ± 0.31 |  |
| CCCCCCCCCCOc1cc2c(O)c(C(=O)OCC)cnc2cc1OCC | 0.162 ± 0.38 | -0.591 ± 0.88 |
| CC(C[N+](C)(C)C)OC(N)=O (stereo unspecified) | -0.202 ± 0.4 |  |
| Cc1c(NC(C)C)c(=O)n(-c2ccccc2)n1C | -1.94 ± 0.57 |  |
| NCCc1cc[nH]n1 | 0.576 ± 0.37 |  |
| CC(=O)OCC(=O)[C@@]1(O)[C@H](OC(C)=O)C[C@H]2[C@@H]3CCC4=CC(=O)C=C[C@]4(C)[C@@]3(F)[C@@H](O)C[C@@]21C | 1.64 ± 0.36 |  |
| CC(C)Cn1cnc2c(N)nc3ccccc3c21 [Imiquimod] | 0.198 ± 0.36 |  |
| CC(C)Cn1cnc2c(N)nc3ccccc3c21 | -0.707 ± 0.96 |  |
| NC(=O)N1c2ccccc2CC(=O)c2ccccc21 | 0.321 ± 0.78 |  |
| O=C(O)CCCC[C@@H]1CCSS1 | -0.393 ± 0.44 |  |
| Cc1cccc(Nc2ccncc2S(=O)(=O)NC(=O)NC(C)C)c1 | -0.264 ± 0.15 |  |
| CN(C)c1cc(NC(=O)CNC(C)(C)C)c(O)c2c1C[C@H]1C[C@H]3[C@H](N(C)C)C(O)=C(C(N)=O)C(=O)[C@@]3(O)C(O)=C1C2=O | 0.367 ± 0.68 |  |
| CC1(C)O[C@@H]2[C@@H](CO[C@@]3(COS(N)(=O)=O)OC(C)(C)O[C@@H]23)O1 | -0.666 ± 0.36 |  |
| COc1cc(NS(=O)(=O)c2ccc(N)cc2)nc(OC)n1 | 0.884 ± 0.53 |  |
| CC[N+](CC)(CC(=O)Nc1c(C)cccc1C)Cc1ccccc1 | 0.0274 ± 1.8 |  |
| O=C1N=C(O)NC1(c1ccccc1)c1ccccc1 | -0.535 ± 0.62 |  |
| S=c1[nH]cnc2nc[nH]c12 | -1.79 ± 0.81 |  |
| S=c1[nH]cnc2nc[nH]c12 [Mercaptopurine] | -0.626 ± 0.007 |  |

Looked up above:
O=C(O)C[C@H](O)C[C@H](O)/C=C/c1c(C2CC2)nc2ccccc2c1-c1ccc(F)cc1 – mitochondrial oxygen consumption rate normalised (2 µM): -0.571 ± 0.42
CC(C)Cn1cnc2c(N)nc3ccccc3c21 – mitochondrial oxygen consumption rate normalised (2 µM): -0.707 ± 0.96

Further records follow:

| SMILES | mitochondrial oxygen consumption rate normalised (2 µM) | mitochondrial oxygen consumption rate normalised (10 µM) |
| --- | --- | --- |
| CC(=O)CC(c1ccc([N+](=O)[O-])cc1)c1c(O)c2ccccc2oc1=O (stereo unspecified) | 0.329 ± 0.17 | 0.325 ± 0.51 |
| CCCCCCCCNC(C)C(O)c1ccc(SC(C)C)cc1 (stereo unspecified) | 0.228 ± 0.074 |  |
| O=c1[nH]c(=O)n([C@H]2C[C@H](O)[C@@H](CO)O2)cc1C(F)(F)F | 2.01 ± 0.92 |  |
| Cc1nnc(SCC2=C(C(=O)O)N3C(=O)[C@@H](NC(=O)Cn4cnnn4)[C@H]3SC2)s1 | 0.21 ± 0.84 |  |
| CCCC(=O)O[C@]1(C(=O)CO)CC[C@H]2[C@@H]3CCC4=CC(=O)CC[C@]4(C)[C@H]3[C@@H](O)C[C@@]21C | 0.73 ± 2.5 |  |
| CC1(C)S[C@@H]2[C@H](NC(=O)COc3ccccc3)C(=O)N2[C@H]1C(=O)O | 0.698 ± 0.67 |  |
| COc1ccc2c3c1O[C@H]1C[C@@H](O)C=C[C@@]31CCN(C)C2 | 0.926 ± 0.67 |  |
| CC(C)NC(=N)NC(=N)Nc1ccc(Cl)cc1 | -0.0178 ± 0.62 |  |
| Oc1c(Cl)cc(Cl)c2cccnc12 | -0.847 ± 0.84 |  |
| c1ccc(-c2ccc(C(c3ccccc3)n3ccnc3)cc2)cc1 (stereo unspecified) | 0.0501 ± 0.94 |  |
| O=C1CC[C@@H](C(=O)N2CSC[C@H]2C(=O)O)N1 ([pGlu]-[Thz]-OH) | -0.502 ± 0.46 |  |
| CN(C)CCC(c1ccc(Br)cc1)c1ccccn1 (stereo unspecified) | 0.744 ± 1.1 |  |
| CCC1(c2ccccc2)C(=O)NCNC1=O | -1.22 ± 0.91 |  |
| C[C@H]1C[C@H]2[C@@H]3CCC4=CC(=O)C=C[C@]4(C)[C@@]3(F)[C@@H](O)C[C@]2(C)[C@@]1(O)C(=O)COP(=O)(O)O | -0.752 ± 0.39 | -0.398 ± 0.27 |
| CCCCC(CC)COC(=O)CC(C(=O)OCC(CC)CCCC)S(=O)(=O)O (stereo unspecified) | 0.0742 ± 0.21 | 0.149 ± 0.34 |
| Nc1ncnc2c1ncn2[C@@H]1O[C@H](CO)[C@@H](O)[C@@H]1O | 0.138 ± 0.043 | 0.868 ± 0.46 |
| C[C@@](Cc1ccc(O)c(O)c1)(NN)C(=O)O | 1.13 ± 0.83 |  |
| Cn1c(=O)c2c(ncn2CC2OCCO2)n(C)c1=O | 0.647 ± 0.028 |  |
| COC(=O)Nc1nc2cc(Sc3ccccc3)ccc2[nH]1 | -0.065 ± 0.23 |  |
| CC(=O)N(CC(O)CO)c1c(I)c(C(=O)NCC(O)CO)c(I)c(C(=O)NCC(O)CO)c1I (stereo unspecified) | 0.295 ± 0.9 |  |
| CN1CCN(CC(=O)N2c3ccccc3C(=O)Nc3cccnc32)CC1 | 0.0329 ± 0.57 |  |
| CC(=O)N(CC(O)CO)c1c(I)c(C(=O)NCCO)c(I)c(C(=O)NCC(O)CO)c1I (stereo unspecified) | -0.226 ± 0.72 |  |
| CC(C)NCC(O)COc1ccc(CC(N)=O)cc1 (stereo unspecified) | -0.231 ± 0.16 |  |
| CC1=C(C)C(=O)C(C(CCCCCC(=O)O)c2ccccc2)=C(C)C1=O (stereo unspecified) | 0.367 ± 0.25 |  |
| CNCCc1ccccn1 | 0.331 ± 0.1 |  |
